Measured values published in PubChem BioAssay AID1671190 (National Center for Advancing Translational Sciences (NCATS), 2021).
The whole screen tested about 580,000 compounds, of which about 6,100 (1.1%) were called active. The shares of active, inactive and inconclusive entries below differ from those in the screen. The call rests on the fitted dose curve; in most records, active means well fitted inhibition curve with a large enough effect; inconclusive means small, poorly fitted or top-dose-only effect, or another doubt; inactive means no such curve, though single readings can be large or run the other way. A potency beside an inconclusive call is a rough fit, not a confirmed value.

Protein sequences, listed by entry. Tags and fused reporters are not part of them. Lines headed by an entry give the natural chain unless they say otherwise; changes in a name come on top.
UniProt P18054: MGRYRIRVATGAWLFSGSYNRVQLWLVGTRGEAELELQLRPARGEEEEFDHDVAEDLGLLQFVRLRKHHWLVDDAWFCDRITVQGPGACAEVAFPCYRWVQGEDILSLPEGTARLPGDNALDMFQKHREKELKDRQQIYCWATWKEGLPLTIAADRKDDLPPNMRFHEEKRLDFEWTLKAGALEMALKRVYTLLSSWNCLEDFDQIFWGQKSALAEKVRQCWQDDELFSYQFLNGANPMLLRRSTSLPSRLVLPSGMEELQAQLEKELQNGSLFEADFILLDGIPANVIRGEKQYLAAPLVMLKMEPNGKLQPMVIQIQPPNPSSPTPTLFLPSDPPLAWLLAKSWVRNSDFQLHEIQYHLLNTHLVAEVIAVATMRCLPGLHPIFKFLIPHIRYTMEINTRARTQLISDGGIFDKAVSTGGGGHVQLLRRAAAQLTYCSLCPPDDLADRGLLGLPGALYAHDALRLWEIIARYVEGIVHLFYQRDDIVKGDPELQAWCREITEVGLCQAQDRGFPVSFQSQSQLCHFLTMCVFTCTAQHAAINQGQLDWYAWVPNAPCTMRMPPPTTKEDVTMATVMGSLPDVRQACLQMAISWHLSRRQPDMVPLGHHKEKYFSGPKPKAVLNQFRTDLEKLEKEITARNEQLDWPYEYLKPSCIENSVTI

target: Polyunsaturated fatty acid lipoxygenase ALOX12 (Homo sapiens) (UniProt P18054); assay: Primary qHTS assay for inhibitors of human arachidonate 12S-lipoxygenase (ALOX12): Round 2; conditions: purified 12hLO, xylenol orange hydroperoxide absorbance; series mostly up to 108 µM
Outline: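 Hydroperoxide product was detected by ferrous iron/xylenol orange as the 573 to 405 nm absorbance ratio. Arachidonic acid at 40 uM (final) was turned over for 30 min at room temperature by 150 nM human 12hLO, pH 7.0 Hepes buffer, after 15 min compound preincubation.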
Potency means the concentration at half of the fitted maximal effect.

| SMILES | Potency |
| --- | --- |
| COc1ccc(-c2cn(C)c(=O)n3cc(COc4ccc(C(=O)O)cc4)nc23)c(C)c1 | inconclusive: 11.2 µM [inhibitor, full curve] |
| FC(F)(F)c1ccccc1-c1cncnc1NCc1cccnc1 | inactive |
| O=C(Cc1ccc([N+](=O)[O-])cc1)c1c(O)cc(O)cc1O | inconclusive: 50.1 µM [inhibitor, partial curve, poor fit] |
| COc1cc(CN2CCC(Cc3ccccc3)CC2)cc([N+](=O)[O-])c1O | inconclusive: 3.16 µM [inhibitor, full curve, poor fit] |
| CCO[C@H]1CN(C(=O)CCCc2nc(-c3ccccc3OC)no2)C[C@@H]1O | inactive |
| Cc1ccc(N2CCN(C(C(=O)Nc3c(C)cccc3C)c3cc4ccccc4o3)CC2)cc1 (stereo not drawn) | inconclusive: 56.2 µM [inhibitor, partial curve, poor fit] |
| CCN(/C=N/c1sc2c(c1C#N)CCCCC2)CC | active: 44.7 µM |
| C=CCc1ccc(OCCCCN2CC(C)CC(C)C2)c(OC)c1 (stereo not drawn) | inconclusive: 0.562 µM [inhibitor, full curve, poor fit] |
| CC1(C)CC(=O)c2cc(C(=O)Nn3cnnc3)c(=O)n(-c3ccccc3)c2C1 | inconclusive: 35.5 µM [inhibitor, partial curve, poor fit] |
| N#C/C(=C\c1ccc(-c2cc(Cl)ccc2Cl)o1)c1nc2ccccc2[nH]1 | inconclusive: 79.4 µM [inhibitor, partial curve, poor fit] |
| Cc1cc(Nc2ccccc2Cl)c2ccccc2n1 | inactive |
| CC(C)CCNC(=O)c1ccc(Cn2c(=S)[nH]c3ccccc3c2=O)cc1 | inactive |
| CCCCN(CCCC)S(=O)(=O)c1ccc(C(=O)Nc2sc3c(c2C(N)=O)CCN(CC)C3)cc1 | inactive |
| CN(C)c1cccc(C(=O)NCC2CCN(c3cc(-c4ccc(Cl)cc4)[nH]n3)CC2)c1 | inactive |
| O=C(c1ccncc1)N1CCC(Oc2ccccc2-c2nc(-c3ccccc3)no2)C1 (stereo not drawn) | inconclusive: 79.4 µM [inhibitor, single point] |
| CCC(CC)c1nnc(NC(=O)CCc2c[nH]c3ccccc23)s1 | inconclusive: 100 µM [inhibitor, partial curve, poor fit] |
| CCc1nc2ccccc2n1CCCCOc1ccc(Cl)cc1 | inconclusive: 89.1 µM [inhibitor, partial curve, poor fit] |
| CCOc1ccccc1CN1CCC2(CCN(C(=O)c3ccccc3Cl)CC2)Oc2ccccc21 | inconclusive: 89.1 µM [inhibitor, single point] |
| CCc1ccc(NC(=O)CCCn2cnc3c2c(=O)n(C)c(=O)n3C)cc1 | inconclusive: 39.8 µM [inhibitor, partial curve, poor fit] |
| Cc1nn(C)c2sc(C(=O)N3CCN(S(=O)(=O)c4ccc(F)cc4F)CC3)cc12 | inactive |
| CC(C)C1C(=O)N(Cc2cn(Cc3ccco3)nn2)CCS(=O)(=O)N1Cc1ccc(-c2cccc(N(C)C)c2)cc1 (stereo not drawn) | inactive |
| O=c1ccc(NS(=O)(=O)c2ccccc2)c2n1C[C@H]1C[C@@H]2CN(S(=O)(=O)c2ccccc2)C1 | inconclusive: 28.2 µM [inhibitor, full curve] |

2 entries from above, reformatted:
SMILES,Potency
CCC(CC)c1nnc(NC(=O)CCc2c[nH]c3ccccc23)s1,"inconclusive: 100 µM [inhibitor, partial curve, poor fit]"
CC(C)C1C(=O)N(Cc2cn(Cc3ccco3)nn2)CCS(=O)(=O)N1Cc1ccc(-c2cccc(N(C)C)c2)cc1 (stereo not drawn),inactive

Remaining list, next part.

| SMILES | Potency |
| --- | --- |
| O=c1[nH]n(-c2ccccn2)c(=O)c2ccccc12 | inconclusive: 10 µM [inhibitor, full curve, poor fit] |
| Cc1cccc(CN2CCN(c3ccccn3)CC2)c1 | inconclusive: 0.282 µM [inhibitor, full curve, poor fit] |
| COc1cccc(C(=O)Nc2cc(C(C)(C)C)no2)c1 | inconclusive: 44.7 µM [inhibitor, partial curve, poor fit] |
| CC1CC(C)CN(C(=O)CCCn2c(=S)[nH]c3ccccc3c2=O)C1 (stereo not drawn) | inactive |
| Clc1ccc(-c2noc(-c3ccccc3Br)n2)cc1 | inconclusive: 0.794 µM [inhibitor, full curve] |
| CCN1CCN(C(=O)c2cn(Cc3ccccc3)nc2-c2ccc(C)c(C)c2)CC1 | inconclusive: 79.4 µM [inhibitor, single point] |
| O=C1C=CC2=C3c4cc(O)c(O)cc4CC3(O)COC2=C1O (stereo not drawn) | inconclusive: 50.1 µM [inhibitor, partial curve, poor fit] |
| COc1ccccc1NC(=O)/C=C/c1nc2ccccc2o1 | inconclusive: 28.2 µM [inhibitor, partial curve, poor fit] |
| CCOC(=O)/C=C1\CN(Cc2cc(OC)c(OC)c(OC)c2)S(=O)(=O)c2ccccc21 | inactive |
| Cc1ccc(-c2nc3n(n2)C(CC(=O)Nc2ccc(C)cc2C)C(=O)N3)cc1 (stereo not drawn) | inactive |
| COc1ccc(C(=O)N2CCc3nc(C4CC4)nc(-c4ccc(OC)cc4)c3C2)cc1 | inconclusive: 44.7 µM [inhibitor, partial curve] |
| CC(C)CS(=O)(=O)Nc1ccc([C@H]2OCC(=O)N[C@@H]2CO)cc1 | inactive |
| C=CCNC(=O)N[C@H]1C[C@H]2C(=O)Nc3ccc(/C=C/c4ccc(OC)cc4)cc3C(=O)N2C1 | inconclusive: 56.2 µM [inhibitor, partial curve, poor fit] |
| Cc1ccc(Sc2ccc(CO)cc2[N+](=O)[O-])cc1 | inconclusive: 50.1 µM [inhibitor, partial curve, poor fit] |
| Cc1ccccc1Nc1cc(C(=O)NCC2CCCO2)c2ccccc2n1 (stereo not drawn) | inactive |
| COc1cc(C2C3=C(COC3=O)Oc3cc4c(cc32)OCO4)ccc1O (stereo not drawn) | inconclusive: 79.4 µM [inhibitor, single point] |
| CN(C)C(=O)c1ccc(F)c(F)c1 | inactive |
| COc1ccc(CNc2oc(COc3ccccc3)nc2C#N)cc1 | inactive |
| O=C(COC(=O)CNS(=O)(=O)c1cc(C(F)(F)F)ccc1Cl)NC1CC1 | inconclusive: 22.4 µM [inhibitor, partial curve, poor fit] |
| Cc1cc2nc(-c3nnnn3Cc3ccccc3)c(=O)[nH]c2cc1C | inconclusive: 39.8 µM [inhibitor, partial curve, poor fit] |
| Cc1ccc(-c2cc(C(=O)NN3CCOCC3)c3cc(Br)ccc3n2)o1 | inconclusive: 50.1 µM [inhibitor, partial curve, poor fit] |

Reprinted at random: two records from the list, in no set order.

| SMILES | Potency |
| --- | --- |
| Cc1ccc(-c2nc3n(n2)C(CC(=O)Nc2ccc(C)cc2C)C(=O)N3)cc1 (stereo not drawn) | inactive |
| CC(C)CS(=O)(=O)Nc1ccc([C@H]2OCC(=O)N[C@@H]2CO)cc1 | inactive |
